Results from ChEMBL document CHEMBL5154857, “Discovery of potential novel CRBN modulators by virtual screening and bioassay” (Eur J Med Chem, 2022).

System: A549
Experiment: Antitumor activity against human A549 cells assessed as inhibition of cell growth incubated for 48 hrs by MTS assay
Format: functional, cell-based
Details: A549, 48 h

IC50: < 8 nM
Compound: CC(=O)O[C@H]1C(=O)[C@@]2(C)[C@H]([C@H](OC(=O)c3ccccc3)[C@]3(O)C[C@H](OC(=O)[C@H](O)[C@@H](NC(=O)c4ccccc4)c4ccccc4)C(C)=C1C3(C)C)[C@]1(OC(C)=O)CO[C@@H]1C[C@@H]2O [PACLITAXEL]
